Source: article PMC12787483
Results are given in words; binding and its absence hold for the method and conditions named. Some entries that bind do so weakly or less than the wild type.

Sequences of proteins named here, by UniProt entry; tags and fusion partners are left off.
UniProt Q9SXZ2: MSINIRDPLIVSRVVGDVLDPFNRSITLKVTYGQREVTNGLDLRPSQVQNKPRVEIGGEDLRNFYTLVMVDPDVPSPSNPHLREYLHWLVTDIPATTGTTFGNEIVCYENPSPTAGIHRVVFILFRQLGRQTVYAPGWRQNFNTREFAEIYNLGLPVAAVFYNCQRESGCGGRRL
UniProt P35631: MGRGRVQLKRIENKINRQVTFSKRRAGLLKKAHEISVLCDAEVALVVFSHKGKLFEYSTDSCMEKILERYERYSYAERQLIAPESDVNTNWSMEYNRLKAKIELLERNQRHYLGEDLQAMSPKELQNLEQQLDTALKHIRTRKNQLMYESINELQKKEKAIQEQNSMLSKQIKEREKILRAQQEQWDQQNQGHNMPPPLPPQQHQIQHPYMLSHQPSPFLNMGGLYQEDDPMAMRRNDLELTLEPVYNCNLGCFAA

Target: Arabidopsis AtFT (FLOWERING LOCUS T), yeast two-hybrid fusion (Arabidopsis thaliana) (UniProt Q9SXZ2)
Test: two-hybrid; GAL4 system; bait in pGBKT7, prey in pGADT7; co-transformed yeast grown on SD/-Leu/-Trp, then on quadruple dropout medium (SD/-Leu/-Trp/-His/-Ade + x-α-gal; methods: with 20 mM 3-AT), 30 °C

binding: binds
Substance: Arabidopsis AtAP1 (APETALA1), yeast two-hybrid fusion (from UniProt P35631 1-256)
